Assay results taken from patent publication US20100206809A1, “METHOD AND APPARATUS FOR TREATING ORGANIC MATTER-CONTAINING WATER” (KURITA WATER INDUSTRIES LTD., priority 2007, published 2010).

How the values were obtained:
[1] = Daily change in differential pressure across the RO membrane separator
[2] = Concentration of combined chlorine in activated carbon-treated water; type: physicochemical; conditions: industrial water

Compound | Increase in differential pressure across the RO membrane separator ([1]; Example 1, combined chlorine 5 mg-Cl2/L, FIG. 3) | Concentration of combined chlorine in activated carbon-treated water ([2]; Example 4, combined chlorine in activated carbon feed water 1 mg/L, SV 20 hr^-1) | Concentration of combined chlorine in activated carbon-treated water ([2]; Example 5, combined chlorine in activated carbon feed water 3 mg/L, SV 20 hr^-1) | Concentration of combined chlorine in activated carbon-treated water ([2]; Example 8, SV through activated carbon column 20 hr^-1, combined chlorine 1 mg-Cl2/L) | Concentration of combined chlorine in activated carbon-treated water ([2]; Example 9, SV through activated carbon column 30 hr^-1, combined chlorine 1 mg-Cl2/L) | Slime on the clogged RO membrane separator ([1]; Comparative Example 1, free chlorine 0.5 mg-Cl2/L) | Differential pressure across the RO membrane separator ([1]; Comparative Example 1, free chlorine 0.5 mg-Cl2/L, about 7 months after the start of passing water, FIG. 3)
Cc1ccc(S(=O)(=O)[N-]Cl)cc1.[Na+] [Chloramine T, sodium N-chloro-p-toluenesulfonamide trihydrate] | no increase in differential pressure | 0.5 mg/L | 2 mg/L | 0.5 mg/L | 0.9 mg/L | – | –
OCl [NaClO, sodium hypochlorite, reference compound] | – | – | – | – | – | adhesion of slime to the clogged RO membrane separator was observed | about 0.4 MPa
